Protein sequences, listed by entry. Tags and fused reporters are not part of them.
UniProt O00425: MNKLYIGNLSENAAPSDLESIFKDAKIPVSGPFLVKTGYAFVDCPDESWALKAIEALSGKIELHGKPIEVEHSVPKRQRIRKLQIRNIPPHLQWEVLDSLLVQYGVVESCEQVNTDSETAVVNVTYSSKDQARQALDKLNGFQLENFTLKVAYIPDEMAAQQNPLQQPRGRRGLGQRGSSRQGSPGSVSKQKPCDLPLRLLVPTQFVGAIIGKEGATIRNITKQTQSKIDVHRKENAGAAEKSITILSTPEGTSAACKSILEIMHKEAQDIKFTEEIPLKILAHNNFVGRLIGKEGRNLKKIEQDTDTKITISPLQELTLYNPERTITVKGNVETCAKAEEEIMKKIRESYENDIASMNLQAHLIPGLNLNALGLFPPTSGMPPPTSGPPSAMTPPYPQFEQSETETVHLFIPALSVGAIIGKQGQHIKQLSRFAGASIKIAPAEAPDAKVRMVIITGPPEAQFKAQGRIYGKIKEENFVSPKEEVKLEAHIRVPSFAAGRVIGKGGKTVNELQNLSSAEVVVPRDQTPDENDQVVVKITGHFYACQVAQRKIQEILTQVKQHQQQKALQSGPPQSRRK

In PMC11334570:

Molecular target: T1, Ubiquitin-specific protease 15 (USP15), endogenous (human (endogenous in SGC7901)) (UniProt Q9Y4E8)
T1 sequence: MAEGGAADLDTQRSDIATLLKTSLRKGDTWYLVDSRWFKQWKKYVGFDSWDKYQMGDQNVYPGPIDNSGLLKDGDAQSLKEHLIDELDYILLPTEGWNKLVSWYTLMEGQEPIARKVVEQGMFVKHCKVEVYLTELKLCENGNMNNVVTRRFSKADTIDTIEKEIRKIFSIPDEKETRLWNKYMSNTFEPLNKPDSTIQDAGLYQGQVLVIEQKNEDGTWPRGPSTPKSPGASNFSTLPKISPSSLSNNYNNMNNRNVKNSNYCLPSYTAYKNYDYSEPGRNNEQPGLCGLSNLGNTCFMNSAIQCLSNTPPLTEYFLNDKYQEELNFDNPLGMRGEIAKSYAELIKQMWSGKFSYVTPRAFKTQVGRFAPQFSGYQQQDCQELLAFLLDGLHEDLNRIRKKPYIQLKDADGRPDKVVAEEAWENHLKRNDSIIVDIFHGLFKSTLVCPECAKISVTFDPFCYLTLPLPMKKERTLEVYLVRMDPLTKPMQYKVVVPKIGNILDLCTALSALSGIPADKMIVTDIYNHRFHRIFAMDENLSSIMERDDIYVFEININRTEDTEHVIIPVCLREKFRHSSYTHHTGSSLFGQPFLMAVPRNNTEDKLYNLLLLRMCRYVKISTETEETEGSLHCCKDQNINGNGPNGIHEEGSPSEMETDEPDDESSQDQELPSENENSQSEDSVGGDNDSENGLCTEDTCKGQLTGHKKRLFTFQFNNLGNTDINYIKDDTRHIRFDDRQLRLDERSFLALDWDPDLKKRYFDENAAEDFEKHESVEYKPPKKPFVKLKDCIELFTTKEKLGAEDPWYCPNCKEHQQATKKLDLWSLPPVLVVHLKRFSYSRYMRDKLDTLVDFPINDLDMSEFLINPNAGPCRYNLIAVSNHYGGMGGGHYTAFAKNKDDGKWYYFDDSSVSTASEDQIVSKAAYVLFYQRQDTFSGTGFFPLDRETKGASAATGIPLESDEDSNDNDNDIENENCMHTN
Assay: affinity purification with mass spectrometry; CoIP-MS: SGC7901 cell lysates immunoprecipitated with anti-USP15 antibody, IgG as negative control; SDS-PAGE, silver staining, MS

Molecule: Insulin like growth factor 2 mRNA binding protein 3 (IGF2BP3), endogenous (from UniProt O00425 1-579)
- binding: binds

B1: Hexokinase domain containing 1 (HKDC1), endogenous (enzyme, UniProt Q2TB90 1-917)
chain: MFAVHLMAFYFSKLKEDQIKKVDRFLYHMRLSDDTLLDIMRRFRAEMEKGLAKDTNPTAAVKMLPTFVRAIPDGSENGEFLSLDLGGSKFRVLKVQVAEEGKRHVQMESQFYPTPNEIIRGNGTELFEYVADCLADFMKTKDLKHKKLPLGLTFSFPCRQTKLEEGVLLSWTKKFKARGVQDTDVVSRLTKAMRRHKDMDVDILALVNDTVGTMMTCAYDDPYCEVGVIIGTGTNACYMEDMSNIDLVEGDEGRMCINTEWGAFGDDGALEDIRTEFDRELDLGSLNPGKQLFEKMISGLYLGELVRLILLKMAKAGLLFGGEKSSALHTKGKIETRHVAAMEKYKEGLANTREILVDLGLEPSEADCIAVQHVCTIVSFRSANLCAAALAAILTRLRENKKVERLRTTVGMDGTLYKIHPQYPKRLHKVVRKLVPSCDVRFLLSESGSTKGAAMVTAVASRVQAQRKQIDRVLALFQLTREQLVDVQAKMRAELEYGLKKKSHGLATVRMLPTYVCGLPDGTEKGKFLALDLGGTNFRVLLVKIRSGRRSVRMYNKIFAIPLEIMQGTGEELFDHIVQCIADFLDYMGLKGASLPLGFTFSFPCRQMSIDKGTLIGWTKGFKATDCEGEDVVDMLREAIKRRNEFDLDIVAVVNDTVGTMMTCGYEDPNCEIGLIAGTGSNMCYMEDMRNIEMVEGGEGKMCINTEWGGFGDNGCIDDIWTRYDTEVDEGSLNPGKQRYEKMTSGMYLGEIVRQILIDLTKQGLLFRGQISERLRTRGIFETKFLSQIESDRLALLQVRRILQQLGLDSTCEDSIVVKEVCGAVSRRAAQLCGAGLAAIVEKRREDQGLEHLRITVGVDGTLYKLHPHFSRILQETVKELAPRCDVTFMLSEDGSGKGAALITAVAKRLQQAQKEN
- binding: binds

Results are given in words; binding and its absence hold for the method and conditions named. Binding seen in cells or lysates may run through a third protein. These calls come from enrichment with a bait or labelling near it, and not all partners need be listed.
